We go through five molecules from patent US20080191164A1, “Method For the Treatment of a Material Other Than the Human Body” (priority 2005, published 2008).

Series [1] can be described thus: Degreasing of steel sheets, cotton pad test. The settings on record: steel sheet, cotton pad applied twice, rinsed with cold water. Also noted: key: 1: visible residual presence of a thin greasy film; 2: visible residual presence of small greasy spots; 3: visible absence of fatty substance (degreased sheet).
Series [2] in a line: Degreasing of steel sheets, cotton pad test. Also noted: key: 1: visible residual presence of a thin greasy film; 2: visible residual presence of small greasy spots; 3: visible absence of fatty substance (degreased sheet). The settings on record: steel sheet, cotton pad applied twice, rinsed with cold water. The source holds these as a separate data set.
The nature of series [3]: Overall grade as degreasing composition. The settings on record: from number of the 9 fatty substances with grade 3.
Series [4] is described as follows: Degreasing of steel sheets, cotton pad test. More on the design: key: 1: visible residual presence of a thin greasy film; 2: visible residual presence of small greasy spots; 3: visible absence of fatty substance (degreased sheet). The settings on record: steel sheet, cotton pad applied twice, rinsed with cold water. The source holds these as a separate data set.
Series [5] is described as follows: Degreasing of steel sheets, cotton pad test. Also noted: key: 1: visible residual presence of a thin greasy film; 2: visible residual presence of small greasy spots; 3: visible absence of fatty substance (degreased sheet). Conditions: steel sheet, cotton pad applied twice, rinsed with cold water. This is another data set of the same source.
Series [6] in a line: Degreasing of steel sheets, cotton pad test. Also noted: key: 1: visible residual presence of a thin greasy film; 2: visible residual presence of small greasy spots; 3: visible absence of fatty substance (degreased sheet). The settings on record: steel sheet, cotton pad applied twice, rinsed with cold water. This is another data set of the same source.
Series [7] in a line: Degreasing of steel sheets, cotton pad test. Also noted: key: 1: visible residual presence of a thin greasy film; 2: visible residual presence of small greasy spots; 3: visible absence of fatty substance (degreased sheet). The settings on record: steel sheet, cotton pad applied twice, rinsed with cold water. The source holds these as a separate data set.
Series [8] is described as follows: Degreasing of steel sheets, cotton pad test. More on the design: key: 1: visible residual presence of a thin greasy film; 2: visible residual presence of small greasy spots; 3: visible absence of fatty substance (degreased sheet). Conditions: steel sheet, cotton pad applied twice, rinsed with cold water. This is another data set of the same source.
Series [9] in a line: Degreasing of steel sheets, cotton pad test. The settings on record: steel sheet, cotton pad applied twice, rinsed with cold water. Also noted: key: 1: visible residual presence of a thin greasy film; 2: visible residual presence of small greasy spots; 3: visible absence of fatty substance (degreased sheet). The source holds these as a separate data set.

Turning to `ClC=C(Cl)Cl` [Composition 1, trichloroethylene], the “degreasing grade FS 9” value in series [1] was 3. Further, the “degreasing grade FS 8” value in [2] worked out at 3. In [3], the “OVERALL GRADE (/10)” value is 10 /10. In addition, in series [4], the “degreasing grade FS 7” value is on record as 3. Besides, the “degreasing grade FS 3” value in series [5] came out at 3. Besides, the “degreasing grade FS 4” value in series [6] stood at 3. Besides, the “degreasing grade FS 2” value in [7] turned out to be 3. In series [8], the “degreasing grade FS 1” value came out at 3. The “degreasing grade FS 6” value in [9] is 3.

Regarding `ClCCl` [Composition 2, dichloromethane], the “degreasing grade FS 9” value in series [1] turned out to be 3. Moreover, in series [2], the “degreasing grade FS 8” value is on record as 3. The “OVERALL GRADE (/10)” value in series [3] is 10 /10. Also, the “degreasing grade FS 7” value in series [4] is reported as 3. In addition, the “degreasing grade FS 3” value in series [5] is given as 3. For the same molecule, in series [6], the “degreasing grade FS 4” value amounted to 3. Besides, the “degreasing grade FS 2” value in series [7] was found to be 3. Further, in series [8], the “degreasing grade FS 1” value came out at 3. Besides, the “degreasing grade FS 6” value in [9] amounted to 3.

On to `C=C(C)[C@H]1CC=C(C)CC1` [Composition 3, dipentene], for which the “degreasing grade FS 9” value in [1] was 3. Moreover, the “degreasing grade FS 8” value in series [2] worked out at 2. Moreover, the “OVERALL GRADE (/10)” value in series [3] is listed as 9 /10. Besides, in [4], the “degreasing grade FS 7” value is on record as 3. Also, the “degreasing grade FS 3” value in series [5] turned out to be 3. Also, in series [6], the “degreasing grade FS 4” value is reported as 3. The “degreasing grade FS 2” value in series [7] was found to be 3. The “degreasing grade FS 1” value in series [8] worked out at 3. Moreover, the “degreasing grade FS 6” value in series [9] is 3.

Regarding `CCOC(=O)C(C)O` (stereo not drawn) [Composition 4, ethyl lactate], in series [1], the “degreasing grade FS 9” value is on record as 3. Moreover, the “degreasing grade FS 8” value in [2] is listed as 2. In addition, in series [3], the “OVERALL GRADE (/10)” value is on record as 8 /10. Moreover, in series [4], the “degreasing grade FS 7” value was 3. For the same molecule, in [5], the “degreasing grade FS 3” value came out at 3. In addition, the “degreasing grade FS 4” value in series [6] is 3. Besides, in [7], the “degreasing grade FS 2” value was 3. For the same molecule, the “degreasing grade FS 1” value in [8] is recorded as 3. Moreover, in [9], the “degreasing grade FS 6” value was found to be 3.

Turning to `CO[C@H]1CO[C@H]2[C@@H]1OC[C@H]2OC` [Composition 5, dimethyl isosorbide], in series [1], the “degreasing grade FS 9” value is 3. Also, in series [2], the “degreasing grade FS 8” value was 2. Further, the “OVERALL GRADE (/10)” value in [3] is given as 6 /10. Besides, the “degreasing grade FS 7” value in series [4] stood at 3. In addition, the “degreasing grade FS 3” value in series [5] was determined as 2. In addition, in series [6], the “degreasing grade FS 4” value worked out at 3. In addition, the “degreasing grade FS 2” value in [7] stood at 3. In series [8], the “degreasing grade FS 1” value is listed as 3. The “degreasing grade FS 6” value in series [9] was 2.
